Where a name gives a salt, the structure may show the parent alone. Some results were stated once for a whole list of compounds, not compound by compound.
These compounds were tested on tumor cells (assay: Cytotoxicity effects of the platinum compounds on tumor cells (MTT), overall conclusion). Conditions: conclusion from Tables 1-2 and 4-9.
Format: cell-based
With `[NH2][Pt]1([NH2])[O]C(=O)C(CCCCN2CCCC2)C(=O)[O]1` [Compound 5, 2-(4-(1-tetrahydropyrrolidinyl)-butyl)-malonate•cis-diamine platinum (II) phosphate] the “cytotoxic effects in vitro compared with cisplatin and carboplatin” value was “equivalent or stronger cytotoxic effects in vitro with cisplatin, and much stronger than carboplatin”. `CCN(CC)CC(C)CCC1C(=O)[O][Pt]([NH2])([NH2])[O]C1=O` (stereo not drawn) [Compound 8, 2-(3-methyl-4-diethylaminobutyl)-malonate•cis-diamine platinum (II) acetate] was tested, and the “cytotoxic effects in vitro compared with cisplatin and carboplatin” value was “equivalent or stronger cytotoxic effects in vitro with cisplatin, and much stronger than carboplatin”. For `[NH2][Pt]1([NH2])[O]C(=O)C(CCCCN2CCCCC2)C(=O)[O]1` [Compound 4, 2-(4-(1-piperidyl)-butyl)-malonate•cis-diamine platinum (II) phosphate], the “cytotoxic effects in vitro compared with cisplatin and carboplatin” value was “equivalent or stronger cytotoxic effects in vitro with cisplatin, and much stronger than carboplatin”. `CCN(CC)CCCCC1C(=O)[O][Pt]([NH2])([NH2])[O]C1=O` [Compound 1, 2-(4-diethylaminobutyl)-malonate•cis-diamine platinum (II) acetate] was tested, and the “cytotoxic effects in vitro compared with cisplatin and carboplatin” value was “equivalent or stronger cytotoxic effects in vitro with cisplatin, and much stronger than carboplatin”. With `CCN(CC)CCCCC1C(=O)[O][Pt]([NH2])([N]2CCCCC2)[O]C1=O` (stereo not drawn) [Compound 28, 2-(4-diethylaminobutyl)-malonate•cis-ammonia•piperidine platinum (II) acetate] the “cytotoxic effects in vitro compared with cisplatin and carboplatin” value was “equivalent or stronger cytotoxic effects in vitro with cisplatin, and much stronger than carboplatin”. In the case of `CC1CCCN1CCCCC1C(=O)[O][Pt]([NH2])([NH2])[O]C1=O` (stereo not drawn) [Compound 10, 2-(4-(2-methyl-1-tetrahydropyrrolidinyl)-butyl)-malonate•cis-diamine platinum (II) phosphate], the “cytotoxic effects in vitro compared with cisplatin and carboplatin” value is reported as “equivalent or stronger cytotoxic effects in vitro with cisplatin, and much stronger than carboplatin”. In the case of `CN(C)C1CC(C2C(=O)[O][Pt]([NH2])([NH2])[O]C2=O)C1` (stereo not drawn) [Compound 6, 2-(3-dimethylaminocyclobutyl)-malonate•cis-diamine platinum (II) mesylate], the “cytotoxic effects in vitro compared with cisplatin and carboplatin” value is reported as “equivalent or stronger cytotoxic effects in vitro with cisplatin, and much stronger than carboplatin”.

Reference: patent US9725477B2, “Platinum compounds of malonic acid derivative having leaving group containing amino or alkylamino” (BEIJING FSWELCOME TECHNOLOGY DEVELOPMENT CO., LTD, priority 2012, dated 2017)
